{
  "source": "patent US20080161396A1",
  "about": "“Method of control of arthropod pests of game and pet birds” (priority 2006, published 2008)",
  "experiment": "Breeding success, brood size, chick survival and chick growth of red grouse (treated vs control hens/broods)",
  "type": "in vivo, red grouse (Lagopus lagopus scoticus)",
  "experimental": "The experiment was conducted on two sites located in the North of Scotland (March-October). In outline, on each Moor, hens were either treated with permethrin leg bands or with untreated band. After hatching, chicks from treated hens were also tagged and treated with permethrin partagial bands, while chicks from control brood were tagged but not treated with permethrin. The experiment was conducted on Tullybeagles Estate in Perthshire (hereafter referred as to Moor 1) and Forest of Birse Estate on Deeside (hereafter Moor 2). Both Moors are managed for grouse (heather burning, predator control, worm control) and had low grouse densities and low productivity in recent years.\nCatching and treatment of hens. In spring (18 March-6 April), 40 hens were caught on Moor 1 and 20 on Moor 2. Each was randomly assigned to one of two treatments. Half the birds caught at each site were treated (i.e., given acaracide leg bands, two per bird), or kept as control (untreated bands). Hens were fitted with radio collars (TW-3, Biotrack) to facilitate relocation. Birds were aged, weighed, wing length measured and condition score recorded. All hens were dosed with anthelminthic (Levamisole hydrochloride 3%) to remove nematode parasites. Nematodes are well known for their negative effects on grouse breeding success and survival (Hudson, 1986), so removing them standardized the birds for this possible source of variation.\nLaying time. Nests were located by radio tracking and their location recorded using GPS. Clutch size was measured, and all eggs were weighed (with an electronic balance, to the nearest 0.1 g) and measured (length by width, with a caliper, to the nearest 0.1 mm). Egg density was used to estimate hatch dates (see Seivwright, 2004). If clutches were incomplete at first visit, nests were revisited.\nHatching success. Around predicted hatch date (from egg measurements), nests were located using GPS and number of hatched and un-hatched eggs were recorded. Broods were located by radio-tracking hens and chicks were found and counted with the aid of trained pointer dogs.\nBrood survival to 2 weeks +/−5 days and treatment of chicks. Hens were located by radio tracking and pointer dogs were used to locate chicks. As many chicks as possible were captured. […] Brood survival to 1 month days +/−5 days. Hens were located by radio tracking and pointer dogs were used to locate chicks. As many chicks as possible were captured. […] length and tick counts (around head and neck area) were recorded. A blood sample was collected in EDTA coated eppendorfs. At 1 month, because it was difficult to ensure that all the chicks were found during daytime visits with dogs, we also located hens and broods at night by radio tracking and broods were counted using lamp. This provided the best estimate of brood size at 1 month, which was used in subsequent analyses.\nBrood size at fledging. Hens were located at around 45 days post hatching. Broods were then flushed and number of chicks was counted.\nStatistical analyses. Tick numbers were modeled using generalized linear mixed models with brood as a random effect and using a poisson error distribution. Tick burdens are known to be much less variable within broods than between broods (Elston et al., 2001). The seasonal pattern was investigated by fitting time as julian day (days from 1st January) and the asymptotic pattern in the data was captured using a quadratic function of julian day (julian day*julian day). The interaction between time and treatment was used to determine if the pattern of tick burden varied between treatments. The relationship between tick burden and age was investigated using chick age as number of days post hatching and the quadratic function of chick age to investigate if there was a significant asymptotic relationship between average brood tick abundance and chick age (a rise and fall in tick numbers in relation to age). […]",
  "note": "Values joined by “and” are separate entries in the source; they are usually repeats but may differ in a detail not shown here. Identical values can stand only once.",
  "data": [
    {"compound": "CC1(C)C(C=C(Cl)Cl)C1C(=O)OCc1cccc(Oc2ccccc2)c1", "note": "(stereo not drawn) [permethrin]", "values": [
      {"measurement": "Breeding potential = Total number of eggs laid", "setting": "Moor 1, treated", "value": 186},
      {"measurement": "Clutch size", "setting": "Moor 1, treated hens", "value": "9.8 and 9.8 ± 1.3"},
      {"measurement": "Hatch date", "setting": "Moor 1, treated hens", "value": "28.2 ± 6.2"},
      {"measurement": "Breeding potential = Total number of eggs laid", "setting": "Moor 2, treated", "value": 46},
      {"measurement": "Clutch size", "setting": "Moor 2, treated hens", "value": "9.45 and 9.2 ± 2.5"},
      {"measurement": "Hatch date", "setting": "Moor 2, treated hens", "value": "27.4 ± 4.7"}
    ]}
  ]
}
